Results published in the supplement of paper PMC3334620.
In all, about 33,000 sequences were measured (“E-score (-0.5 to 0.5)”: median about -0.0014, highest 2% from about 0.25 on). The list shows a part of the results.

Target: T1, Cad1 (UniProt P24813)
T1 sequence: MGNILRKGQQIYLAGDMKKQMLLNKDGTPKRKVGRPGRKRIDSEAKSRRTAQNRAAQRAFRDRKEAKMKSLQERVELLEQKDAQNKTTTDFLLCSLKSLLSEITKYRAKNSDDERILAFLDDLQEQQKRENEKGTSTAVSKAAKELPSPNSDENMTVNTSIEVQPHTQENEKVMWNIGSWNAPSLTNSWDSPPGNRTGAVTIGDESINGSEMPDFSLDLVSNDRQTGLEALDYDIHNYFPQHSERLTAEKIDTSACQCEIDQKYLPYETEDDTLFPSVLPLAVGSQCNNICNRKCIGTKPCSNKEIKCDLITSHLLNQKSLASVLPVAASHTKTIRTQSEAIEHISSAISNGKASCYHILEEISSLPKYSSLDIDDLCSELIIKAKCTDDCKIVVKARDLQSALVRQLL
Assay: PBM E-score (8-mer binding enrichment) (E-score (-0.5 to 0.5)); higher = stronger / more preferred TF binding
Settings: protein concentration: 100 nM; construct: GST-full length
Method in brief: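 Yeast transcription factors, full-length or as DNA-binding domains, were expressed with a GST tag using PURExpress in vitro transcription/translation. At about 100-200 nM they were applied to universal all-10-mer Agilent arrays, double-stranded by primer extension on fresh or once-stripped slides. Fluorescent anti-GST detected bound protein, and masliner normalised the scans. E-scores for ungapped eight-base words, pooled with reverse complements, came from the Universal PBM Analysis Suite.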

Sequence	PBM E-score
AACGATAA	0.0289
ATAACCCG	-0.101
CCTGGGAA	-0.0443
CCGATTCG	0.189
ACGGTCAA	-0.00707
CCTGATCA	-0.0505
CGTCATCC	0.0396
AAAGGATC	-0.0492
CGAACCCA	0.0048
AAACTCTC	0.229
CATGGTTA	0.205
AAGGACTT	-0.217
AGCCTCAT	-0.165
ATCTCATC	0.15
CAAATCCA	0.136
CGCCACCG	-0.0723
CTGTACGA	0.00563
AGTGTGAG	-0.134
AAGGGTCT	-0.22
ACCAGTAG	-0.0961
CTTGGATA	-0.00444
ATTGGCGA	-0.0146
GTTTAGGA	-0.189
AGAGCGGA	0.0529

Quoted at random: six entries already listed
Sequence	PBM E-score
CCTGGGAA	-0.0443
AAAGGATC	-0.0492
AAGGACTT	-0.217
AGAGCGGA	0.0529
AGTGTGAG	-0.134
CGAACCCA	0.0048

Remaining list, next part.

Sequence	PBM E-score
AATCACCT	-0.113
CCGTATGC	-0.0646
AGCCCTCG	-0.0628
CAGTTAAA	-0.0815
TTCTTAAA	-0.122
AACAGATG	-0.0988
GCGCGACC	0.154
GTCCATGA	-0.313
CAGAAGGA	-0.289
AACCTAAG	-0.0375
AACTAGGG	-0.119
ACAAAAAA	0.161
CCCGCAAA	0.17
AAACAAAA	-0.0143
TACCTAGA	0.0238
CAGGAAAA	0.0524
CGCGAGAA	0.0165
CACTGTCA	0.0789
CTCGCCTA	-0.0736
CGGACCAC	0.0528
CATTTGTA	0.241
AAAGTTAC	0.0464
AGGGGCAT	-0.239
GGTATTAA	0.098

Sequence	PBM E-score
AGACTGAG	-0.057
AGCCCGCT	-0.137
CGACCATA	-0.0443
ATACGTCG	-0.00182
TACAAATA	0.185
AAAGACAT	-0.226
CGCCTGCA	-0.0131
ACGGACTG	-0.016
CGAACTAA	0.0987
AAAAACCA	0.039
GACGACGA	0.021
GGAAATCC	-0.00821
GCGATAAC	0.0347
CATGTGAG	-0.124
CTGATTGC	0.0638
GATACAGC	0.0704
GTCAGATA	-0.0227
ACGCTCAC	0.197
ATATCTAA	0.152
AAATCGGG	0.0578
CTCGGAGA	-0.0487
TCTTAAGA	0.0711
GCCCAACC	-0.0909
CAGACACG	-0.0273

Sequence	PBM E-score
ATATTGTC	0.223
CTCCAATC	0.0827
AAGAGCCT	-0.136
ATGCTAAG	-0.0463
AACGTGTG	-0.0106
AAGTGCCC	-0.108
CTATGGGA	-0.144
GACGATCC	0.0273
ACGCGGCG	0.112
ACCTTTCA	0.0837
TGACGTCA	0.334
AAACCATG	-0.015
GTCCTAGA	-0.123
GAACACGC	0.0984
CTGCTGAC	0.275
CTAATCTA	0.0215
AGAACAGC	0.00791
ATCATAGC	0.0969
GAACTACC	-0.0676
CGGTTATC	-0.109
GGTAGATA	0.16
ATAAACAG	0.00806
